Our source for the binding values is article PMC11347378.

Amino acid sequences for entries named in this document (tags omitted).
UniProt Q61501: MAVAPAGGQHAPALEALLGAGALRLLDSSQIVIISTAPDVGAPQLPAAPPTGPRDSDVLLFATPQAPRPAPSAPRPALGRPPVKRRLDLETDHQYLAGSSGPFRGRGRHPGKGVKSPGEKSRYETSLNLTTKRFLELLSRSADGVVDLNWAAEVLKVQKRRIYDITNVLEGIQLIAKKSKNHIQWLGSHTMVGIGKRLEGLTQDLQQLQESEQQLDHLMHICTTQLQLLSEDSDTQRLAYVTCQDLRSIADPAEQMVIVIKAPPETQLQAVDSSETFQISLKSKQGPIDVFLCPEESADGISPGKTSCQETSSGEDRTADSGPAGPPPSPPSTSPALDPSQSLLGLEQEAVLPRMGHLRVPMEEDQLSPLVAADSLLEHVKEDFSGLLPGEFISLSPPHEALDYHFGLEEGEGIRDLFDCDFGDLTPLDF
UniProt Q8R0K9: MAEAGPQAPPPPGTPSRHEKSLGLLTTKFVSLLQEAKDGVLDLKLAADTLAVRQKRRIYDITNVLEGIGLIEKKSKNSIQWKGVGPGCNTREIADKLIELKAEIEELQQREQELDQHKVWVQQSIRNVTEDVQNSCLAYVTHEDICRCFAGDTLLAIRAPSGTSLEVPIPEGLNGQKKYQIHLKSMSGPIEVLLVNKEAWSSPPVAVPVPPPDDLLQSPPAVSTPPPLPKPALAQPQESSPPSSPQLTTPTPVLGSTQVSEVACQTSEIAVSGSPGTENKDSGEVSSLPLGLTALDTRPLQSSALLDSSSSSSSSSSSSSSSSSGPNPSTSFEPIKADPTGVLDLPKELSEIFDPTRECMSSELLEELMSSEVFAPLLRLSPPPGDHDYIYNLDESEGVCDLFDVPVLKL

No constants are given. Whether binding was seen depends on the method and setting. Binding seen in cells or lysates may run through a third protein. Some binding calls cover weakened binding; strength is not graded here.

In the experiment the target is T1, TFDP1 (transcription factor DP-1) (mouse (endogenous in HSPCs)) (UniProt Q08639).
T1 sequence: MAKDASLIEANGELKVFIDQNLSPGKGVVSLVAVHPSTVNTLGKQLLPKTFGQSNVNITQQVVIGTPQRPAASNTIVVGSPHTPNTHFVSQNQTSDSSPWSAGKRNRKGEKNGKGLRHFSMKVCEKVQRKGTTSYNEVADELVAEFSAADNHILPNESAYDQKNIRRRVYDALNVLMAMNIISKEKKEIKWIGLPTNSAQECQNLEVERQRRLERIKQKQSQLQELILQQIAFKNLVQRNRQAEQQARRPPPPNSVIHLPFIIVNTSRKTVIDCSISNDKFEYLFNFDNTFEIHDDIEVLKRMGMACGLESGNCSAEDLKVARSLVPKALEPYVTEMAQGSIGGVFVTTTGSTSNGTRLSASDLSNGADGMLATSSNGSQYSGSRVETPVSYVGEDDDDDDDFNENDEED
As to the kind of experiment: co-IP; endogenous proteins; 1 x 10^7 expanded mouse Cas9-HSPCs lysed in RIPA buffer with protease inhibitors; 500 ug total protein immunoprecipitated overnight with anti-TFDP1, anti-E2F4 or anti-E2F1; captured on Protein A + G magnetic beads.

Regarding E2F1 (from UniProt Q61501 1-430), the binding entry is listed as “binds”.

With E2F4 (from UniProt Q8R0K9 1-410), the binding entry was “binds”.
